Experimental data published in the supplement of paper PMC10849652.
This is one part of the list.

By UniProt entry, the sequences of proteins in these tests, tags left out. Where a name states a change or a piece, a line headed by the entry shows the natural chain unless it says otherwise.
UniProt Q6P1S2: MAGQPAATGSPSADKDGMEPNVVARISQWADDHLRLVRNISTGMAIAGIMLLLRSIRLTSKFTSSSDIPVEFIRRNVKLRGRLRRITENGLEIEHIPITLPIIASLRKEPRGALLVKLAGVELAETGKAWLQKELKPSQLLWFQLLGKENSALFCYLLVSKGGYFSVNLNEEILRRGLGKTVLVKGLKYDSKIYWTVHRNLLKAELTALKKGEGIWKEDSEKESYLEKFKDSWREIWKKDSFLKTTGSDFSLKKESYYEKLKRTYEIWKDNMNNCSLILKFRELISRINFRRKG
UniProt Q9NS00: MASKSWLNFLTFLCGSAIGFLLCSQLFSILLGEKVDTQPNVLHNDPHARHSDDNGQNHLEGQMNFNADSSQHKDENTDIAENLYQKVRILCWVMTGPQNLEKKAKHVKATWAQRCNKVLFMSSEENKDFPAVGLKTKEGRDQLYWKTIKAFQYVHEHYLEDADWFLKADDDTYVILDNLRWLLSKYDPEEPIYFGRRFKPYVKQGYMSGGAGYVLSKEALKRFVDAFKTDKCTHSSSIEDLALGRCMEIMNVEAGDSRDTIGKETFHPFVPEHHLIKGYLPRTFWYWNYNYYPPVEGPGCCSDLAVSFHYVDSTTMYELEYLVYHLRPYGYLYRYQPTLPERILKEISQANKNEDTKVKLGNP
UniProt Q10589, whole entry, looked up: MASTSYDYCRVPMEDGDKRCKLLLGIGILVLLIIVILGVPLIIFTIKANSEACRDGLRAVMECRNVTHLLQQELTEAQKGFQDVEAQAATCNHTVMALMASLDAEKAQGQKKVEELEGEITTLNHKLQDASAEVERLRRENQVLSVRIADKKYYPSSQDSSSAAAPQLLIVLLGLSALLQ
UniProt A6NDU8: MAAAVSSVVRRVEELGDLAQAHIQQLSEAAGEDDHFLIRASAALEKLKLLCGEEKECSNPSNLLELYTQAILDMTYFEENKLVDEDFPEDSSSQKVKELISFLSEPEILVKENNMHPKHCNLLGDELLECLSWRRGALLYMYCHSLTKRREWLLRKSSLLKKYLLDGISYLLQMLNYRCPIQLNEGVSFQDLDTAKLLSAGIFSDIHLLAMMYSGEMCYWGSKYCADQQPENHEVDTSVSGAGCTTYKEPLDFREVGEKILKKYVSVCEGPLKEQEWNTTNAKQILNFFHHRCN
UniProt Q14444, whole entry, looked up: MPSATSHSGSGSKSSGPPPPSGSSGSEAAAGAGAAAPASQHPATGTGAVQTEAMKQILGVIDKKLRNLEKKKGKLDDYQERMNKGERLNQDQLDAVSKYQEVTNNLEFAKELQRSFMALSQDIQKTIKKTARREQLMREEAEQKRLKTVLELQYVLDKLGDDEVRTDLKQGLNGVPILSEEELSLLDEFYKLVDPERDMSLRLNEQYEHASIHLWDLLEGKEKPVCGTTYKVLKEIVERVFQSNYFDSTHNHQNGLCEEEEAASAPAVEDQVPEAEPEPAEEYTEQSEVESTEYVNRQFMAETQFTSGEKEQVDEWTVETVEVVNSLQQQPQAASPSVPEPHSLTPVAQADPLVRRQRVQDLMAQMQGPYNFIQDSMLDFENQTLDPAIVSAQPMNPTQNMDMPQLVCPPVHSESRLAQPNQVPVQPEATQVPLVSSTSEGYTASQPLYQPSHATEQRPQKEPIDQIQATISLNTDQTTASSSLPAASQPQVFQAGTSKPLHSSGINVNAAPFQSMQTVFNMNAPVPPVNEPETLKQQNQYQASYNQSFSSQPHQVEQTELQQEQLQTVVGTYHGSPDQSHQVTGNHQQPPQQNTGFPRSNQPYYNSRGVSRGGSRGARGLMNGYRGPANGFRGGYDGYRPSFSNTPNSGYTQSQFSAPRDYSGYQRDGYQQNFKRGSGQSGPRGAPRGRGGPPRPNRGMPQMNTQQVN
UniProt Q49AR2: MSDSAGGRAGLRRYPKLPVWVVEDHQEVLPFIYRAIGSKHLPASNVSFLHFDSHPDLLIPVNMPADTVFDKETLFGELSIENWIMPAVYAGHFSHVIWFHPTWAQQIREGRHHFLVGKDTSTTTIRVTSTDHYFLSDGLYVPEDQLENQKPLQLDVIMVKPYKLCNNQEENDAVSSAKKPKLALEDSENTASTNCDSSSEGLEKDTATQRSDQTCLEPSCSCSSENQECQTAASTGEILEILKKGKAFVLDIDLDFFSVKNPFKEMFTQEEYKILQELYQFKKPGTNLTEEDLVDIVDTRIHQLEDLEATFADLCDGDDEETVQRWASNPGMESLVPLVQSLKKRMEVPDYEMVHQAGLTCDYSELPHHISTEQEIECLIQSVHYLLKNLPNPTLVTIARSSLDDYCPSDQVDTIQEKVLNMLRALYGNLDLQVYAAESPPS
UniProt Q8N6N3: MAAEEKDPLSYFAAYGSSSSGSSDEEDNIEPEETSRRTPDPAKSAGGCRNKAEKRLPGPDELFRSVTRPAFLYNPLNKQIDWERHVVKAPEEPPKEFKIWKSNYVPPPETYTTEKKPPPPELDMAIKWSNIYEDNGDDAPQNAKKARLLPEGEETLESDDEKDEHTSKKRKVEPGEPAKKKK
UniProt Q5JPI3: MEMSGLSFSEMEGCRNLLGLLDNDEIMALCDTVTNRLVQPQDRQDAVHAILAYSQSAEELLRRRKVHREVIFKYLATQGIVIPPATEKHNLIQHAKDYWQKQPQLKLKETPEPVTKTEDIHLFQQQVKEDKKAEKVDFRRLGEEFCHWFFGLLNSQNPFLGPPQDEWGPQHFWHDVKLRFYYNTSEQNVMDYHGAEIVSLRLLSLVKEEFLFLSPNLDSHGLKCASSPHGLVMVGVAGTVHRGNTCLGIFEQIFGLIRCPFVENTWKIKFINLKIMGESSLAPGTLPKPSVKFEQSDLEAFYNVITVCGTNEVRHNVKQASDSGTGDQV
UniProt Q9BSJ5: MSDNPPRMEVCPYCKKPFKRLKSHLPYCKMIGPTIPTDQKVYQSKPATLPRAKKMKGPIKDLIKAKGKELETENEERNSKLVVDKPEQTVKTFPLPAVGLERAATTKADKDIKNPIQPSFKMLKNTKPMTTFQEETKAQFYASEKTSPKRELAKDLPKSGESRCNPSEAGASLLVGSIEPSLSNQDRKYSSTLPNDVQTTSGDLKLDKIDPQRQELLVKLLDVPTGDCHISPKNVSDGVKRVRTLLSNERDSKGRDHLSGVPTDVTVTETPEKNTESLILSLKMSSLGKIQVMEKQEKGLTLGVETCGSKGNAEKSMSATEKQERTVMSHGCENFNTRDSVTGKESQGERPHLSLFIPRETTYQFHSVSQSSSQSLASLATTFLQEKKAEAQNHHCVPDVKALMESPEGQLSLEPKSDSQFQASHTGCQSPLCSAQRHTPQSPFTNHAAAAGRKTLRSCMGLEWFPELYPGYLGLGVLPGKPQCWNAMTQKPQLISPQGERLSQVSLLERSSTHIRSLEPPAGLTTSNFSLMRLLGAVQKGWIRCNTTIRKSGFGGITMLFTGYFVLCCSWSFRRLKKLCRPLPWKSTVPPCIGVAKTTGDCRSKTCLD
UniProt O14981: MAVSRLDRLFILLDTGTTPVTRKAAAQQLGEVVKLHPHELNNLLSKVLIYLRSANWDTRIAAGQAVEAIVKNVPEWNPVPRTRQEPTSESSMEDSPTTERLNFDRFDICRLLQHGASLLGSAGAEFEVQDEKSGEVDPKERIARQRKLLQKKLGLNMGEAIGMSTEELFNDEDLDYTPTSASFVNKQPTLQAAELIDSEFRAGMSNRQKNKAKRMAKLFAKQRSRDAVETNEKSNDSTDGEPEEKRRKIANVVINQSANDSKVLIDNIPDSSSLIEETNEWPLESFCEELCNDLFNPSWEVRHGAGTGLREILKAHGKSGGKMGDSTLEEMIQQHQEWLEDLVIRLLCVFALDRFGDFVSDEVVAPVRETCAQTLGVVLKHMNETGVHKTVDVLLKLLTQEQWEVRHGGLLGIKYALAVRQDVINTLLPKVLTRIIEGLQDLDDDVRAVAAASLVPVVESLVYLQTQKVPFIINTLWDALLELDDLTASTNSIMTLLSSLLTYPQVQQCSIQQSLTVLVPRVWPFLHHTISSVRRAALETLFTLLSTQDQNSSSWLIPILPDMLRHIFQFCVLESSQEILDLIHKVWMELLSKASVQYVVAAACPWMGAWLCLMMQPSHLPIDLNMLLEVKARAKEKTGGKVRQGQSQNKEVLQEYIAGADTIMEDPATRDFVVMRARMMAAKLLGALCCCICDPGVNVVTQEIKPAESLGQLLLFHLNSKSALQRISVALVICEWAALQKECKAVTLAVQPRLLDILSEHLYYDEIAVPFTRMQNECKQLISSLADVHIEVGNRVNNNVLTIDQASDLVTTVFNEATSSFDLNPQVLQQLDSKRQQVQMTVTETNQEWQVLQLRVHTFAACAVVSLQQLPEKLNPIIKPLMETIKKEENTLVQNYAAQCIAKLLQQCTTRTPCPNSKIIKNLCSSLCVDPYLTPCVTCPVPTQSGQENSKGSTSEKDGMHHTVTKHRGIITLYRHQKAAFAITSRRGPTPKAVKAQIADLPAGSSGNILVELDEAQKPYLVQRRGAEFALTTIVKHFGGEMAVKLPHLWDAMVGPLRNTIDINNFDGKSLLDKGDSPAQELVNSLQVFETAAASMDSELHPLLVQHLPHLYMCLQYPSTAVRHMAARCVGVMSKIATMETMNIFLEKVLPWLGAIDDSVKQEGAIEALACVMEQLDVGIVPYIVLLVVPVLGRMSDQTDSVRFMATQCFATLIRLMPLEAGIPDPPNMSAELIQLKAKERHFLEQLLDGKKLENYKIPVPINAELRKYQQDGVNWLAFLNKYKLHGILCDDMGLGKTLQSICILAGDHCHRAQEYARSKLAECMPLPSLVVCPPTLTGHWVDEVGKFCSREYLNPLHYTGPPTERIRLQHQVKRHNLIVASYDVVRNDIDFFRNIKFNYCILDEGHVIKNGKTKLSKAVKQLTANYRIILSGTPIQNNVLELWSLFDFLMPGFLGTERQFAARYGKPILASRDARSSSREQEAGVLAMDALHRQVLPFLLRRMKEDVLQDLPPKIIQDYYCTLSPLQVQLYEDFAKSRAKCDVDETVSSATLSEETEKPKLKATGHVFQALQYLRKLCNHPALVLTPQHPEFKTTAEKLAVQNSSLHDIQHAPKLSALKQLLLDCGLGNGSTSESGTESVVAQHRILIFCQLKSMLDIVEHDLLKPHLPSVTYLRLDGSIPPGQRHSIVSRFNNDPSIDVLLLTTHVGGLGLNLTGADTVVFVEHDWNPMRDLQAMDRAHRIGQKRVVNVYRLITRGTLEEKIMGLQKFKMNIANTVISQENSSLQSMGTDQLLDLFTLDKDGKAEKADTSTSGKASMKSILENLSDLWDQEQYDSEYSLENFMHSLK
UniProt Q9Y6W3: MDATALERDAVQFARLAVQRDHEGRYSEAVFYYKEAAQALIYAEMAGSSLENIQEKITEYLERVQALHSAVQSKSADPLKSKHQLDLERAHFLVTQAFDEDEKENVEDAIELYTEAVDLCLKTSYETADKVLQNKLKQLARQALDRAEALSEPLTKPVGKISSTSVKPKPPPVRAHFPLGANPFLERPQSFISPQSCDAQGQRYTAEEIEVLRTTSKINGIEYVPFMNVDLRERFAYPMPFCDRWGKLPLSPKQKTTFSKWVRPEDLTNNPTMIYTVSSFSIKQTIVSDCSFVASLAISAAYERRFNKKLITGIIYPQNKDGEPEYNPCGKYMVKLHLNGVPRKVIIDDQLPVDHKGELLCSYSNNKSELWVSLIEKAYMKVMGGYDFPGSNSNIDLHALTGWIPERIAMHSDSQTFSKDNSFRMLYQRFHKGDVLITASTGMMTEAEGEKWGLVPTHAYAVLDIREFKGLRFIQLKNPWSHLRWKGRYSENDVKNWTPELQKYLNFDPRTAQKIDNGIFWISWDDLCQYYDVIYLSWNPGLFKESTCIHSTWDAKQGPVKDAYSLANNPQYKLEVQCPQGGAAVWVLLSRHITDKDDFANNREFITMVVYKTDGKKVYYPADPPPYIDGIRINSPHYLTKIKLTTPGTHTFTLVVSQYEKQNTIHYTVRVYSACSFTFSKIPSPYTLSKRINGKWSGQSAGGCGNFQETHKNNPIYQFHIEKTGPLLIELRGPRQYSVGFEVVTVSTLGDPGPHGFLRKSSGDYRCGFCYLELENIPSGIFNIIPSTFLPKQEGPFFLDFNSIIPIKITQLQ
UniProt Q6ZSJ8: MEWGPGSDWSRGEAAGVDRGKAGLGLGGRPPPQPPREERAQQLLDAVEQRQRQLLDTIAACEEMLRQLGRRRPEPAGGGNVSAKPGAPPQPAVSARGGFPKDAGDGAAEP
UniProt P47756, whole entry, looked up: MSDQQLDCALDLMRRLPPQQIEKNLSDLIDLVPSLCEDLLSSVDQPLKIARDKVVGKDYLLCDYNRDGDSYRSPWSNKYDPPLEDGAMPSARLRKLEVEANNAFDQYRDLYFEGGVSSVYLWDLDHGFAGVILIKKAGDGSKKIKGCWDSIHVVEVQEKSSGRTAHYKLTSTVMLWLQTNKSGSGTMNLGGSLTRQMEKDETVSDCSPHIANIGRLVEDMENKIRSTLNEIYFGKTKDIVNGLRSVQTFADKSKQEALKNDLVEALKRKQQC
UniProt Q9Y2V2: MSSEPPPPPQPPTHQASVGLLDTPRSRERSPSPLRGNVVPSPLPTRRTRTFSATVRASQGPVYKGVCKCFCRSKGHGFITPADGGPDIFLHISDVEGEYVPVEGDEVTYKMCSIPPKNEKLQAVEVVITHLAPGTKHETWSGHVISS

Experiments:
Assay in all cases: log2 fold change, soluble protein after heating vs DMSO (PISA); higher = thermal stabilisation; K562 cells, 10 uM, 30 min; active = over 0.2 and 3.5 SD of the protein, either way, in both replicates (recomputed)
[1] = compound: NC(=O)Nc1cc(-c2cccc(F)c2)sc1C(=O)N[C@H]1CCCNC1
Outline: (§1)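 K562 cells at 2×10^6 cells/mL were exposed to 10 μM compound for 30 min, then aliquots were heated for 3 min across 48°C-58°C, pooled, and extracted in PBS containing 0.5% NP-40 at 4°C. The supernatant after 21,000xg for 90 min was taken as soluble protein and measured by TMTpro 16plex LC-MS/MS with channel sums equalised. Thermal stability is reported relative to control samples, with values from duplicates. Fold changes are given on a log2 scale.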

[2] = compound: NC(=O)c1cnc(N[C@@H]2CCCC[C@@H]2N)nc1Nc1cccc(-n2nccn2)c1
Outline: as §1

[3] = compound: NC1(c2ccc(-c3nc4ccn5c(=O)[nH]nc5c4cc3-c3ccccc3)cc2)CCC1
Outline: as §1

[4] = compound: NCC(=O)Nc1ccc(-n2nc(C(F)(F)F)cc2-c2ccc3c(ccc4ccccc43)c2)cc1
Outline: as §1

[5] = compound: Nc1ccccc1NC(=O)c1ccc(CNC(=O)OCc2cccnc2)cc1 [entinostat]
Outline: as §1

[6] = compound: O=C(CCCCCCC(=O)Nc1ccccc1)NO [vorinostat]
Outline: as §1

[7] = compound: O=C(CCCCCCNC(=O)c1cnc(N(c2ccccc2)c2ccccc2Cl)nc1)NO [citarinostat]
Outline: as §1

[8] = compound: O=C(O)c1ccc2c(c1)nc(Nc1cccc(Cl)c1)c1ccncc12 [silmitasertib]
Outline: as §1

[9] = compound: O=C1NC(=O)C(c2cnc3ccccn23)=C1c1cn2c3c(cc(F)cc13)CN(C(=O)N1CCCCC1)CC2
Outline: as §1

[10] = compound: c1cc(OCCN2CCCCC2)cc(-c2n[nH]c3ccc(-c4nnc[nH]4)cc23)c1
Outline: as §1

Measured: log2 fold change

C3orf33 (UniProt Q6P1S2)
inactive: [1] 0.016 | [2] -0.09 | [3] 0.049 | [4] -0.092 | [5] 0.069 | [6] -0.035 | [7] 0.055 | [8] 0.048 | [9] -0.082 | [10] 0.026

C1GALT1 (UniProt Q9NS00)
inactive: [1] -0.023 | [2] -0.046 | [3] -0.031 | [4] 0.054 | [5] -0.016 | [6] -0.136 | [7] -0.028 | [8] -0.005 | [9] -0.031 | [10] -0.096

BST2 (UniProt Q10589)
inactive: [1] 0.031 | [2] 0.02 | [3] 0.003 | [4] 0.132 | [5] 0.03 | [6] -0.026 | [7] -0.058 | [8] 0.009 | [9] 0.112 | [10] -0.092

C16orf58 (UniProt Q96GQ5)
inactive: [1] -0.047 | [2] -0.05 | [3] -0.111 | [4] -0.08 | [5] 0.001 | [6] 0.026 | [7] 0.034 | [8] 0.032 | [9] -0.027 | [10] -0.017

BUB1B isoform 3 (UniProt O60566)
inactive: [1] 0 | [2] -0.135 | [3] -0.113 | [4] -0.039 | [5] 0.068 | [6] 0.124 | [7] 0.02 | [8] 0.111 | [9] 0.026 | [10] 0

C5orf51 (UniProt A6NDU8)
inactive: [1] -0.08 | [2] -0.036 | [3] -0.216 | [4] -0.031 | [5] 0.064 | [6] 0.027 | [7] 0.105 | [8] 0.026 | [9] 0.004 | [10] -0.066

CAPRIN1 (UniProt Q14444)
inactive: [1] 0.047 | [2] 0.022 | [3] 0.277 | [4] 0.032 | [5] -0.066 | [6] -0.018 | [7] -0.073 | [8] 0.104 | [9] 0.184 | [10] -0.141

BUD23 isoform 3 (UniProt O43709)
inactive: [1] -0.023 | [2] -0.12 | [3] 0.065 | [4] -0.185 | [5] -0.049 | [6] 0.047 | [7] -0.083 | [8] 0.04 | [9] 0.124 | [10] -0.123

BTF3 (UniProt P20290)
inactive: [1] 0.035 | [2] 0.096 | [3] 0.069 | [4] 0.065 | [5] -0.003 | [6] -0.039 | [7] -0.008 | [8] -0.057 | [9] -0.023 | [10] 0.018

C5orf22 (UniProt Q49AR2)
inactive: [1] -0.008 | [2] -0.055 | [3] -0.057 | [4] -0.109 | [5] 0.008 | [6] -0.003 | [7] 0.025 | [8] -0.033 | [9] -0.018 | [10] -0.026

CALR (UniProt P27797)
inactive: [1] 0.024 | [2] 0.002 | [3] 0.053 | [4] 0.001 | [5] 0.012 | [6] -0.006 | [7] -0.009 | [8] 0.017 | [9] -0.022 | [10] -0.065

CALU isoform 3 (UniProt O43852)
inactive: [1] 0.002 | [2] 0.001 | [3] 0.022 | [4] 0.005 | [5] -0.014 | [6] -0.038 | [7] -0.022 | [8] 0.013 | [9] -0.038 | [10] -0.015

BTK isoform 2 (UniProt Q06187)
inactive: [1] 0.071 | [2] 0.008 | [3] 0.264 | [4] 0.481 | [5] 0.073 | [6] -0.025 | [8] 0.176 | [9] 0.161

C1orf52 (UniProt Q8N6N3)
inactive: [1] 0.051 | [2] -0.032 | [3] 0.046 | [4] 0.022 | [5] 0.001 | [6] -0.079 | [7] 0.018 | [8] 0.105 | [9] -0.02 | [10] 0.012

C3orf38 (UniProt Q5JPI3)
inactive: [1] -0.049 | [2] -0.267 | [3] -0.082 | [4] -0.256 | [5] 0.049 | [7] -0.164 | [8] 0.347 | [9] 0.018 | [10] -0.202

C17orf80 (UniProt Q9BSJ5)
inactive: [1] -0.019 | [2] 0.035 | [3] -0.069 | [4] 0.16 | [5] 0.065 | [6] -0.068 | [7] 0.013 | [8] 0.162 | [9] -0.116 | [10] -0.014

CAND2 (UniProt O75155)
inactive: [1] -0.02 | [2] 0.1 | [3] -0.003 | [4] -0.022 | [5] -0.001 | [6] 0.009 | [7] -0.019 | [8] -0.021 | [9] -0.019 | [10] 0.004

CAPZA2 (UniProt P47755)
inactive: [1] 0.068 | [2] -0.011 | [3] -0.062 | [4] -0.007 | [5] 0.035 | [6] 0.004 | [7] 0.032 | [8] 0.01 | [9] -0.056 | [10] -0.018

BTAF1 (UniProt O14981)
inactive: [1] -0.024 | [2] -0.012 | [3] -0.152 | [4] -0.104 | [5] 0.012 | [6] 0.037 | [7] 0.038 | [8] 0.036 | [9] -0.062 | [10] 0.079

CAPNS1 (UniProt P04632)
inactive: [1] -0.024 | [2] 0.006 | [3] -0.021 | [4] 0.03 | [5] -0.016 | [6] 0.015 | [7] 0.015 | [8] -0.003 | [9] -0.068 | [10] -0.033

CAPN7 (UniProt Q9Y6W3)
inactive: [1] 0.013 | [2] -0.072 | [3] -0.185 | [4] -0.022 | [5] 0.049 | [6] 0.067 | [7] -0.001 | [8] 0.013 | [9] -0.033 | [10] -0.021

C1orf122 (UniProt Q6ZSJ8)
inactive: [1] -0.119 | [2] 0.117 | [3] -0.023 | [4] -0.016 | [5] 0.01 | [6] -0.242 | [7] 0.012 | [8] 0.026 | [9] -0.103 | [10] -0.022

CA13 (UniProt Q8N1Q1)
inactive: [1] 0.047 | [2] -0.092 | [3] -0.014 | [4] 0 | [5] 0.016 | [6] -0.066 | [8] 0.078 | [9] -0.052

Retrieved one by one from the entries so far, 2 records:
C3orf38 (UniProt Q5JPI3)
inactive: [1] -0.049 | [2] -0.267 | [3] -0.082 | [4] -0.256 | [5] 0.049 | [7] -0.164 | [8] 0.347 | [9] 0.018 | [10] -0.202

CALR (UniProt P27797)
inactive: [1] 0.024 | [2] 0.002 | [3] 0.053 | [4] 0.001 | [5] 0.012 | [6] -0.006 | [7] -0.009 | [8] 0.017 | [9] -0.022 | [10] -0.065

Remaining list, next part:

BTRC (UniProt Q9Y297)
inactive: [1] 0 | [2] 0.026 | [3] -0.028 | [4] -0.286 | [5] 0.001 | [6] 0.098 | [8] 0.098 | [9] -0.226

CAPZB (UniProt P47756)
inactive: [1] 0.003 | [2] -0.058 | [3] 0.012 | [4] -0.015 | [5] -0.016 | [6] -0.004 | [7] -0.028 | [8] -0.042 | [9] -0.073 | [10] 0.018

CALM2 (UniProt P0DP24)
inactive: [1] 0.08 | [2] 0.012 | [3] -0.028 | [4] 0.047 | [5] -0.01 | [6] -0.026 | [7] 0.086 | [8] -0.045 | [9] 0 | [10] 0.021

C20orf27 isoform 2 (UniProt Q9GZN8)
inactive: [1] 0.014 | [2] -0.063 | [3] -0.017 | [4] -0.043 | [5] 0.033 | [6] 0.113 | [7] 0.051 | [8] -0.013 | [9] -0.108 | [10] -0.047

BSG (UniProt P35613)
inactive: [1] -0.074 | [2] 0.017 | [3] 0.086 | [4] 0.022 | [5] -0.061 | [6] -0.01 | [7] -0.031 | [8] -0.032 | [9] -0.03 | [10] -0.058

CARHSP1 (UniProt Q9Y2V2)
inactive: [1] -0.069 | [2] -0.127 | [3] -0.112 | [4] -0.009 | [5] 0 | [6] 0 | [7] 0 | [8] 0.035 | [9] 0.02 | [10] 0.001

CALB1 (UniProt P05937)
inactive: [1] -0.029 | [2] -0.014 | [3] -0.161 | [4] -0.041 | [5] 0.022 | [6] -0.027 | [7] 0.062 | [8] 0.006 | [9] 0.016 | [10] -0.035
